The text below walks through data of US20250129140A1, “ANTI-HCMV ANTIBODIES AND ANTIGEN-BINDING FRAGMENTS THEREOF” (ICAHN SCHOOL OF MEDICINE AT MOUNT SINAI, priority 2021, published 2025).

The series relates to gH (TB40/E strain) peptides. Put plainly: PEPperCHIP cyclic gH peptide microarray epitope mapping. In kind it is binding, Human cytomegalovirus. Conditions: peptides of 7, 10 and 13 aa.

B1: 15G11: anti-HCMV gH/gL monoclonal antibody, fusion 1; VH SEQ ID NO:52, VL SEQ ID NO:53; chimeric and fully human IgG1 versions (antibody, V domains shown)
VH: QVQLQESGPGLVKPSQTLSLTCTVSGGSISSGYYYWNWIRQHPGKGLECIGYIYYSGTTYYNPSLKSRLFISVDTSKNQFSLKLRSVTAADTAVYYCARGGLGAFDIWGQGTMVTVSS
VL: EIVLTQSPGTLSLSPGERATLSCRASQSVSSSYLAWYQQKPGQAPRLLIYGASSRAPGIPDRFSGTGSGTDFTLTISRLEPEDFAVYYCQQYGISPLTFGGGTKVEIK
modifications: IgG1 constant regions
notes: anti-HCMV gH/gL monoclonal antibody, fusion 1; chimeric and fully human IgG1 versions
Regarding B1, the “gH peptide bound, domain 1” value is recorded as 187HRPHF191 and the “gH peptide(s) bound, domain 2” value is 426 […] 438.

B2: 9A12: anti-HCMV gH/gL monoclonal antibody, fusion 2; VH SEQ ID NO:59, VL SEQ ID NO:60; chimeric and fully human IgG1 versions (antibody, V domains shown)
VH: EVQLVESGGVLVQPGGSLRLSCAASGFTFSSHEMNWVRQAPGKGLEWISYISSTGSTIYDADSVKGRFTISRDNAKNSLYLQMNSLRAEDTAVYYCARSSGWYRNYSYGMDVWGQGTTVTVSS
VL: DIQMAQSPSSLSASVGDRVTITCRASQGIYNYLAWFQQKPGKAPKSLIYAASSLQTGVPSKFSGSGSGTDFTLTISNLQPEDFATYYCQQYNSFPRTFGQGTKVEIK
modifications: IgG1 constant regions
notes: anti-HCMV gH/gL monoclonal antibody, fusion 2; chimeric and fully human IgG1 versions
As for B2, the “gH peptide bound, domain 1” value stood at 187HRPHF191 and the “gH peptide(s) bound, domain 2” value was 426 […] 438.
